B1: Proline-, glutamic acid- and leucine-rich protein 1 (Homo sapiens), Q8IZL8 (parent)
chain: MAAAVLSGPSAGSAAGVPGGTGGLSAVSSGPRLRLLLLESVSGLLQPRTGSAVAPVHPPNRSAPHLPGLMCLLRLHGSVGGAQNLSALGALVSLSNARLSSIKTRFEGLCLLSLLVGESPTELFQQHCVSWLRSIQQVLQTQDPPATMELAVAVLRDLLRYAAQLPALFRDISMNHLPGLLTSLLGLRPECEQSALEGMKACMTYFPRACGSLKGKLASFFLSRVDALSPQLQQLACECYSRLPSLGAGFSQGLKHTESWEQELHSLLASLHTLLGALYEGAETAPVQNEGPGVEMLLSSEDGDAHVLLQLRQRFSGLARCLGLMLSSEFGAPVSVPVQEILDFICRTLSVSSKNISLHGDGPLRLLLLPSIHLEALDLLSALILACGSRLLRFGILIGRLLPQVLNSWSIGRDSLSPGQERPYSTVRTKVYAILELWVQVCGASAGMLQGGASGEALLTHLLSDISPPADALKLRSPRGSPDGSLQTGKPSAPKKLKLDVGEAMAPPSHRKGDSNANSDVCAAALRGLSRTILMCGPLIKEETHRRLHDLVLPLVMGVQQGEVLGSSPYTSSRCRRELYCLLLALLLAPSPRCPPPLACALQAFSLGQREDSLEVSSFCSEALVTCAALTHPRVPPLQPMGPTCPTPAPVPPPEAPSPFRAPPFHPPGPMPSVGSMPSAGPMPSAGPMPSAGPVPSARPGPPTTANHLGLSVPGLVSVPPRLLPGPENHRAGSNEDPILAPSGTPPPTIPPDETFGGRVPRPAFVHYDKEEASDVEISLESDSDDSVVIVPEGLPPLPPPPPSGATPPPIAPTGPPTASPPVPAKEEPEELPAAPGPLPPPPPPPPPVPGPVTLPPPQLVPEGTPGGGGPPALEEDLTVININSSDEEEEEEEEEEEEEEEEEEEEEDFEEEEEDEEEYFEEEEEEEEEFEEEFEEEEGELEEEEEEEDEEEEEELEEVEDLEFGTAGGEVEEGAPPPPTLPPALPPPESPPKVQPEPEPEPGLLLEVEEPGTEEERGADTAPTLAPEALPSQGEVEREGESPAAGPPPQELVEEEPSAPPTLLEEETEDGSDKVQPPPETPAEEEMETETEAEALQEKEQDDTAAMLADFIDCPPDDEKPPPPTEPDS

Variants of: B1
Conditions: with sumo2_human SUMO2, P61956

| effect of a mutation on the interaction | Variant |
| --- | --- |
| disrupting interaction | V791A |
| disrupting interaction | I790A |

Variants of: B1
Conditions: with sumo2_human SUMO2, P61956
Remark: another data set of the same source

| effect of a mutation on the interaction | Variant |
| --- | --- |
| decreasing interaction | V791A |
| decreasing interaction | I790A |

Variants of: B1
Conditions: with sumo2_human SUMO2, P61956
Remark: another data set of the same source

| effect of a mutation on the interaction | Variant |
| --- | --- |
| disrupting interaction | I881A |
| disrupting interaction | V880A |

— IntAct's records for PubMed 21326211
